Experimental data from publication PMC8997538.
Where a chain is given by its changes, count along the chain named. No constants are given. Whether binding was seen depends on the method and setting. In cells and extracts the contact can be indirect. Some results given as binding are weak or reduced against the parent protein; the word gives no strength. Where a sequence is shown, tags or fusion partners need not be part of it.

T1: 3×Myc-CARD19-G73R (mouse) (UniProt Q9D1I2)
T1 sequence: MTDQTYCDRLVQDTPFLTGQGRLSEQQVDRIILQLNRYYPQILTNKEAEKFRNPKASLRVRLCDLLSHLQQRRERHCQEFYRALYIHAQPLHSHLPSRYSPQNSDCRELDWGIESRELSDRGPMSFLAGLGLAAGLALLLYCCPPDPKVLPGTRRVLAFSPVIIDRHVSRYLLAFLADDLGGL

T2: 3×Myc-CARD19-WT (mouse) (UniProt Q9D1I2)
T2 sequence: T1 sequence with R73G

B1: MIC19 (protein, UniProt Q9CRB9 1-227)
chain: MGGTASTRRVTFEADENENITVVKGIRLSENVIDRMKESSPSGSKSQRYSSVYGASVSDEDLKRRVAEELALEQAKKESEHQRRLKQARDLERERAAANEQLTRAVLRERISSEEERMKAKHLARQLEEKDRVMRKQDAFYKEQLARLEERSSEFYKVTTEEYQKAAEEVEAKFKRYEYHPVCADLQTKILQCYRQNTQQTLSCSALASQYMHCVNHAKQSMLEKGG
B2: SAMM50 (protein, UniProt Q8BGH2 1-469)
chain: MGTVHARSLEPLPSSGTDFGALGEEAEFVEVEPEAKQEILENKDVVVQHVHFDGLGRTKDDIIICEIGEVFKAKNLIEVMRRSHEAREKLLRLGIFRQVDVLIDTCHGEDALPNGLDVTFEVTELRRLTGSYNTMVGNNEGSMVLGLKLPNLLGRAEKVTFQFSYGTKETSYGLSFFKPQPGNFERNFSVNLYKVTGQFPWSSLRETDRGVSAEYSFPLWKTSHTVKWEGVWRELGCLSRTASFAVRKESGHSLKSSLSHAMVIDSRNSSILPRRGALFKVNQELAGYTGGDVSFIKEDFELQLNKPLALDSVFSTSLWGGMLVPIGDKPSSIADRFYLGGPTSVRGFSMHSIGPQSEGDYLGGEAYWAGGLHLYTPLPFRPGQGGFGELFRTHFFLNAGNLCNLNYGEGPKAHIRKLAECIRWSYGAGVVLRLGNIARLELNYCIPMGVQGGDRICDGVQFGAGIRFL
B3: MIC25 (protein, UniProt Q91VN4 1-273)
chain: MGSAESAEARRVSFEMDEEERVRVLQGIRLSESVVNRMKDCSQPSAGEQLVPGFGPSSSAPVPTVPLPAISVPTVPAPTTPVPTAPSSSVRGLPGGTCKGPLTDVKVPSAESGGGLQSSAVKEDLKKFQQEQLAVQDEMVRVAKKEKEAAEKHLKASLPKKKASLTHEQQQSARLARELEDREAELSRRDTFYKEQQGRIQEKNAELYKLSSQQFHEAASKAESTIKPRRVEPVCSGLQAQILRCYRDHLHEVLLCSDLVKAYQHCVSTARKG
B4: mitochondrial antiviral signaling protein (MAVS) (protein, UniProt Q8VCF0 1-503)
chain: MTFAEDKTYKYIRDNHSKFCCVDVLEILPYLSCLTASDQDRLRASYRQIGNRDTLWGLFNNLQRRPGWVEVFIRALQICELPGLADQVTRVYQSYLPPGTSLRSLEPLQLPDFPAAVSGPSAFAPGHNIPDHGLRETPSCPKPVQDTQPPESPVENSEQLLQTNSGAVARMSGGSLIPSPNQQALSPQPSREHQEQEPELGGAHAANVASVPIATYGPVSPTVSFQPLPRTALRTNLLSGVTVSALSADTSLSSSSTGSAFAKGAGDQAKAATCFSTTLTNSVTTSSVPSPRLVPVKTMSSKLPLSSKSTAAMTSTVLTNTAPSKLPSNSVYAGTVPSRVPASVAKAPANTIPPERNSKQAKETPEGPATKVTTGGNQTGPNSSIRSLHSGPEMSKPGVLVSQLDEPFSACSVDLAISPSSSLVSEPNHGPEENEYSSFRIQVDESPSADLLGSPEPLATQQPQEEEEHCASSMPWAKWLGATSALLAVFLAVMLYRSRRLAQ

These binders were tested against T1, 3×Myc-CARD19-G73R (mouse) (assay: co-IP; lysates of macrophages stably expressing Myc-tagged constructs, precleared, 2 µg mouse anti-Myc (9E10) 16 to 20 h at 4 °C, Protein G Sepharose, three washes; 50 mM Tris-HCl pH 7.5, 150 mM NaCl, 1% Triton X-100; Western blot).

Q: B1 was tested. Which binding did it give?
A: Its binding is “binds”.

Q: For B2, which binding is on record?
A: Its binding is “binds”.

Each binder was assayed against T2, 3×Myc-CARD19-WT (mouse) in the same assay as above.

Q: How did the binding turn out when B3 was run?
A: Its binding is “binds”.

Q: For B1, which binding is on record?
A: Its binding is “binds”.

Q: B2 was tested. Which binding did it give?
A: The binding was “binds”.

Q: How did the binding turn out when B4 was run?
A: Its binding is “no binding”.
